The record followed here is the supplement of paper PMC10849652.

The chains behind the UniProt entries cited, without tags or fusion partners. Where a name states a change or a piece, a line headed by the entry shows the natural chain unless it says otherwise.
UniProt Q5JS37: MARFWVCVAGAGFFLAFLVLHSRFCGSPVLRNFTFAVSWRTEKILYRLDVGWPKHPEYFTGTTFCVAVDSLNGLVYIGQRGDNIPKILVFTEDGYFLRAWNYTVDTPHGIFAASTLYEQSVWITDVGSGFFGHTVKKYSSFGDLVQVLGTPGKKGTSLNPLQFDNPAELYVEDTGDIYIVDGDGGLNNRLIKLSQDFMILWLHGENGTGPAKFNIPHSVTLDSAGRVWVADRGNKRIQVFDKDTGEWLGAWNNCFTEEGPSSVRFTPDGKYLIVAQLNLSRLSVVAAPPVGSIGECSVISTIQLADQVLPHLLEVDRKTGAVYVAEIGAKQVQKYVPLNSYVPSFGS
UniProt O00221: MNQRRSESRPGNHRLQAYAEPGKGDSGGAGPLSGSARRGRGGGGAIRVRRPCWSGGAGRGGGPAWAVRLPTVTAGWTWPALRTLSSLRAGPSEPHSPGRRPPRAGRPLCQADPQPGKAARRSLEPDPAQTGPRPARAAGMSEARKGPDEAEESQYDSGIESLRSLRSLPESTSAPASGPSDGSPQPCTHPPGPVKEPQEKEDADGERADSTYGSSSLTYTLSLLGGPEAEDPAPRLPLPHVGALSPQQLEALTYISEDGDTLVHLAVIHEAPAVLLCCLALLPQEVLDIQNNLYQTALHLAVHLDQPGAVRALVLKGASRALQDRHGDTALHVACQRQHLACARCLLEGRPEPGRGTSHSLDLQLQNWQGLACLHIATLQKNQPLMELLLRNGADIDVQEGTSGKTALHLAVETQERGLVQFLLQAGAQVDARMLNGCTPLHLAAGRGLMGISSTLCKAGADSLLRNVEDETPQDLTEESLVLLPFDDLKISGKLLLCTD
UniProt P23511, whole entry, looked up: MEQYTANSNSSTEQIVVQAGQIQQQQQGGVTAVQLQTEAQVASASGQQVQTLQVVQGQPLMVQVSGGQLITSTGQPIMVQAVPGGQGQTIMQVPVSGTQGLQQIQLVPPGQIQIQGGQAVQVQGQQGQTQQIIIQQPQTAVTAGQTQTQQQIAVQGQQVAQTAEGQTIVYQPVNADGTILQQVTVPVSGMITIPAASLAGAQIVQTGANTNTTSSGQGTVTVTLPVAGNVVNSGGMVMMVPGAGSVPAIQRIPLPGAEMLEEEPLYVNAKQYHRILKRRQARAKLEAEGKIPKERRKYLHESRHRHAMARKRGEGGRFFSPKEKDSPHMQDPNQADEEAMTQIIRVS
UniProt Q9Y697: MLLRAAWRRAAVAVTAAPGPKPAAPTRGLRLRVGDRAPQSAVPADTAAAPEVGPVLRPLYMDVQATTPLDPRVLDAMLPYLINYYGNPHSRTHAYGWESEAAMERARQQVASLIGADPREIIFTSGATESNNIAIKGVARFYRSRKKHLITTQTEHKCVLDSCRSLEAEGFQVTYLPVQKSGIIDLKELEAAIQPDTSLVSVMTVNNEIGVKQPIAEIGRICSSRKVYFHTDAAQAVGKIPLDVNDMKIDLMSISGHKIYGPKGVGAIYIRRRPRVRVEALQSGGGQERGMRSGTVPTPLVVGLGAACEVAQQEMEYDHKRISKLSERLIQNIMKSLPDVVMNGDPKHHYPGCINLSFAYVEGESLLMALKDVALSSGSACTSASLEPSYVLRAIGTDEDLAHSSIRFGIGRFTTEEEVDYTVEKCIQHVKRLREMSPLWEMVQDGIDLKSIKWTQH
UniProt P51956: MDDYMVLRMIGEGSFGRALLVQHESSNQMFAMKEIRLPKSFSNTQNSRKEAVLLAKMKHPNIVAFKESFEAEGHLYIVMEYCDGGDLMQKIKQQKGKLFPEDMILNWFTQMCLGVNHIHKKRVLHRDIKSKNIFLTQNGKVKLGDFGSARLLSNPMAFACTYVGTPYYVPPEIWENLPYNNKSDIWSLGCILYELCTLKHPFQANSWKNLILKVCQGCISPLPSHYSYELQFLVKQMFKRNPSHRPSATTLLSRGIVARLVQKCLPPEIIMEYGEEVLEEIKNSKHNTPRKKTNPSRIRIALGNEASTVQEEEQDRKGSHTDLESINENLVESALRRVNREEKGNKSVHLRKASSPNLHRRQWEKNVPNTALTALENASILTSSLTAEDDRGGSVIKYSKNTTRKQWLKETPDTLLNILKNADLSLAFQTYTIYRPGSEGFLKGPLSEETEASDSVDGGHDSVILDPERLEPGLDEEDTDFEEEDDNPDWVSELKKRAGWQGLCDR
UniProt Q86X76: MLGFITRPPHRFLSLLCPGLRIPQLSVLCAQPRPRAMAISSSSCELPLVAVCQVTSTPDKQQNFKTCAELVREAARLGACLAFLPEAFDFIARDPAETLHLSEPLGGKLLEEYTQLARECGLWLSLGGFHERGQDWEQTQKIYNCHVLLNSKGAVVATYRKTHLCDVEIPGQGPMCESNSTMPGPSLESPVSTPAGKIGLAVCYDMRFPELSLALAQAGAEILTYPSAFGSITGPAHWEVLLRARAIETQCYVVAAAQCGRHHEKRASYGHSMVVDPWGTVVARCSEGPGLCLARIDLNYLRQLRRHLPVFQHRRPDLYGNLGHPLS
UniProt Q9Y5B8, whole entry, looked up: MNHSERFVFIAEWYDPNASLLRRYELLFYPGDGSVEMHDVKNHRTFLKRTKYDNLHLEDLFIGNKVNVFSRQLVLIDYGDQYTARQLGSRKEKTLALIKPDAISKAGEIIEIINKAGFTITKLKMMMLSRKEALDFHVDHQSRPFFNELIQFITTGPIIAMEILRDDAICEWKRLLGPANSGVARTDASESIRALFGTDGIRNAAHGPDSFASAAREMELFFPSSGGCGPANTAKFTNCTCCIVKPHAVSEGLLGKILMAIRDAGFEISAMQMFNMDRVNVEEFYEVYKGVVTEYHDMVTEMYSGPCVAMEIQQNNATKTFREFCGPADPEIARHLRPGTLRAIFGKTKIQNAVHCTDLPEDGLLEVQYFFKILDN
UniProt Q92636: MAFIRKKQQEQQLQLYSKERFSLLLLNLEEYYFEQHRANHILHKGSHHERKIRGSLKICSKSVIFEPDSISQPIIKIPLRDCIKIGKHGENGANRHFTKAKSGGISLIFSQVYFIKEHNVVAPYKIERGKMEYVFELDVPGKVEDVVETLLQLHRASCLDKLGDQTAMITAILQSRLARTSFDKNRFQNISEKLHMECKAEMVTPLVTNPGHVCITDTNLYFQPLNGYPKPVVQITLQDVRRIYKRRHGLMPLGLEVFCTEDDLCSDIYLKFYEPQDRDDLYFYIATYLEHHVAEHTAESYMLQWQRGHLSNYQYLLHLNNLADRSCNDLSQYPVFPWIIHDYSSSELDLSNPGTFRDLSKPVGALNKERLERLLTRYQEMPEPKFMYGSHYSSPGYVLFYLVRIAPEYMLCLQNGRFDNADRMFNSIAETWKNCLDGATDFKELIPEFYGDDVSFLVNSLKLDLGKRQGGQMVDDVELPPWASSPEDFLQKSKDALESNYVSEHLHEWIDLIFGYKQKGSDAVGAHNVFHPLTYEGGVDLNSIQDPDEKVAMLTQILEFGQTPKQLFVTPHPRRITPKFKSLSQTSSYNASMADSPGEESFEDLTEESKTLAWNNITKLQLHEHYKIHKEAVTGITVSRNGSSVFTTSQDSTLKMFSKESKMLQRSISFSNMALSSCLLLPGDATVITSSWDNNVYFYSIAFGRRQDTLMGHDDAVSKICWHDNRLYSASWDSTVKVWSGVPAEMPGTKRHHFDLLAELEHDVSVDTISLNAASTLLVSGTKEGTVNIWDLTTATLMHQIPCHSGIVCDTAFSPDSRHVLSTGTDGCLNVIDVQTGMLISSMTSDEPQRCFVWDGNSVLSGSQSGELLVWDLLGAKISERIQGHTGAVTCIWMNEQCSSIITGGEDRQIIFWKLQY
UniProt Q96IY1: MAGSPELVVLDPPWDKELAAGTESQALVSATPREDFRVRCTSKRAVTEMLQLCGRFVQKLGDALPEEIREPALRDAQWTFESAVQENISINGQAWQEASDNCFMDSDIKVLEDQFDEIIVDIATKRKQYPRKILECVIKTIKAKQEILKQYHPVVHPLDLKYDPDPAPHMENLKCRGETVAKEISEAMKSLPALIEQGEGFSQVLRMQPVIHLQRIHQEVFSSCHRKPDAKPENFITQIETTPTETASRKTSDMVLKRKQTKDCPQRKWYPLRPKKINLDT
UniProt Q14934: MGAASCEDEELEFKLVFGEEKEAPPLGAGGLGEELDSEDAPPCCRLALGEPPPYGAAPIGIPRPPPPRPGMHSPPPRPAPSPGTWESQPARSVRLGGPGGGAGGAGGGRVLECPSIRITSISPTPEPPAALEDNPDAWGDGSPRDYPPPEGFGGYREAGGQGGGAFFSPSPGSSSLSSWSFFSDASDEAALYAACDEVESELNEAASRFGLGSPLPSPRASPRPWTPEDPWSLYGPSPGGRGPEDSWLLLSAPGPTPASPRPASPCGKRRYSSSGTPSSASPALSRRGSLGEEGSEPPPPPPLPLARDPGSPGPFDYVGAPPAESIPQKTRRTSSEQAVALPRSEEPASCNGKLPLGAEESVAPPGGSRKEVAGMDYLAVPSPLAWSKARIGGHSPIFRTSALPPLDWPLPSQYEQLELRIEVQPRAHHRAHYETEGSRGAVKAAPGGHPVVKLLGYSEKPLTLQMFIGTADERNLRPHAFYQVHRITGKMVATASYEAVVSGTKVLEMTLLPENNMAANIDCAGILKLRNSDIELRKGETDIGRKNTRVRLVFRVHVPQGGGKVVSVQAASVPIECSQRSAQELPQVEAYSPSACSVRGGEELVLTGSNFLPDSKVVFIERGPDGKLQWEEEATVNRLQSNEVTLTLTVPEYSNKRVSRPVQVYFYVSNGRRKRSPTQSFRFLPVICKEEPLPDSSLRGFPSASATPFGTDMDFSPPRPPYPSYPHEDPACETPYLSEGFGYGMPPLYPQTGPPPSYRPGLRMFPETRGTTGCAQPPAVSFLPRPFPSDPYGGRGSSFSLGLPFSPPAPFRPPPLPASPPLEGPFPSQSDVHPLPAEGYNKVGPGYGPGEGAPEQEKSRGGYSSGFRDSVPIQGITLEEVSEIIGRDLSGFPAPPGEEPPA
UniProt Q9BS92: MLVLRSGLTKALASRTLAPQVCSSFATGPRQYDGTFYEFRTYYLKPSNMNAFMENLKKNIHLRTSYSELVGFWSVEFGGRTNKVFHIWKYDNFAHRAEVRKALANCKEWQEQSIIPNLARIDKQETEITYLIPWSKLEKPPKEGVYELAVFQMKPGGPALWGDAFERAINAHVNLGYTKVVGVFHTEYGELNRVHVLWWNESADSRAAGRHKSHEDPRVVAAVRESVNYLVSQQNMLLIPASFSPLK
UniProt Q9Y239: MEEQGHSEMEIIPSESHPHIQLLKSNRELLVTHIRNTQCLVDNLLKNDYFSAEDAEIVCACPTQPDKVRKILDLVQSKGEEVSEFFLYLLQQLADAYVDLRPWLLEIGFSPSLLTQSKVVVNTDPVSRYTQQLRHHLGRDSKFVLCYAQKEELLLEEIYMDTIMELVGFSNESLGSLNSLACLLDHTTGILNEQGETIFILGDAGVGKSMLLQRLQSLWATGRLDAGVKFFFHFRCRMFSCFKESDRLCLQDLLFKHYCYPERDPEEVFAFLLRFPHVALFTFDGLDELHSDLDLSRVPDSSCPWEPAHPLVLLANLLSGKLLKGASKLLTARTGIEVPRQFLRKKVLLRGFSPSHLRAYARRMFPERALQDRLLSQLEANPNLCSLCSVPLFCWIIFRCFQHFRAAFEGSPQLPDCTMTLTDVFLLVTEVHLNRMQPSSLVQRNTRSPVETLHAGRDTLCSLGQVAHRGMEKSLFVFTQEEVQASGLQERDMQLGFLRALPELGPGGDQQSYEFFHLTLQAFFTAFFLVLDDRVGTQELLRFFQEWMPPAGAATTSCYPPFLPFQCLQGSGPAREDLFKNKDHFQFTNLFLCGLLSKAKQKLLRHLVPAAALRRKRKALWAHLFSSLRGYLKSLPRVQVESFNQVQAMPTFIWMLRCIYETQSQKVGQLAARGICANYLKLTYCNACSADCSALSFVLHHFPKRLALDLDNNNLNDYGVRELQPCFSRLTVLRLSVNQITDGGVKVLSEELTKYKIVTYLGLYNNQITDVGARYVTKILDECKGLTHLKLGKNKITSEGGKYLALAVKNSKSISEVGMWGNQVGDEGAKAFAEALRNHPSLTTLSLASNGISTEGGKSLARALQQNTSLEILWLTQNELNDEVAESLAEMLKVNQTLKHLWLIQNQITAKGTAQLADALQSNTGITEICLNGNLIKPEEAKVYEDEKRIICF

Holding throughout (assay): log2 fold change, soluble protein after heating vs DMSO (PISA); higher = thermal stabilisation; K562 cells, 10 uM, 30 min; active = over 0.2 and 3.5 SD of the protein, either way, in both replicates (recomputed)
Compound in one assay: C#Cc1cccc(Nc2ncnc3cc(OCCOC)c(OCCOC)cc23)c1 [erlotinib]
The essentials:
(§1)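 Aliquots of K562 cells (2×10^6 cells/mL) treated with 10 μM compound for 30 min were heated for 3 min over 48°C-58°C. After pooling and extraction in PBS with 0.5% NP-40 at 4°C, soluble protein from a 21,000xg, 90 min spin was quantified by TMTpro 16plex LC-MS/MS with channel sums equalised. Thermal stability is expressed against control samples, from duplicates, as a log2 fold change.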

Compound in assay [1]: C/C(=N\NC(=O)C1=CC(=CC=C1)S(=O)(=O)N2CCOCC2)/C3=C(C=CC(=C3)Cl)O
The essentials: as §1

Compound in assay [2]: C1=CC(=C(C=C1Cl)C2=NC3=NC=CN=C3C(=N2)NC4=CC=NC=C4)F
The essentials: as §1

Compound in assay [3]: C1=CC(=CC=C1C2=NC3=C(N2)C=C(C=C3)C(=O)N)OC4=CC=C(C=C4)Cl
The essentials:
as §1

Compound in assay [4]: C1=CC2=C(C=CC(=C2)/C=C\3/C(=O)NC(=NCC4=CC=CS4)S3)N=C1
The essentials: as §1

Compound in assay [5]: C1=CC2=NC=CN=C2C=C1/C=C/3\C(=O)NC(=O)S3
The essentials:
as §1

Compound in assay [6]: C1=CC=C2C(=C1)C3=NNC4=CC=CC(=C43)C2=O
The essentials:
as §1

Compound in assay [7]: C1CCN(C1)C(=O)NC2=CC=CC(=C2)NC3=NC=C(C(=N3)NCCC4=CN=CN4)Br
The essentials:
as §1

Compound in assay [8]: C1CN(CCC1(CC2=CC=C(C=C2)Cl)N)C3=NC=NC4=C3C=CN4
The essentials: as §1

Compound in assay [9]: C1=CC=C(C=C1)C2=NC(=C(N2)C3=CC=NC=C3)C4=CC(=C(C=C4)Cl)O
The essentials:
as §1

Some of the results follow.

Turning to NOC2L (UniProt Q9Y3T9), the log2 fold change in the assay with erlotinib was inactive: -0.008; in assay [1], inactive: 0.022; in [2], inactive: -0.066; in assay [3], inactive: -0.064; in assay [4] it was inactive: 0.063; in [5], inactive: 0.044. For the same target, the values for the log2 fold change in assay [6], in [7] and in [8] were inactive: -0.07, inactive: -0.015 and inactive: 0.034, respectively.
NHLRC3 (UniProt Q5JS37): the log2 fold change with erlotinib is inactive: -0.008; in assay [1], inactive: 0.172; in [2], inactive: -0.019; in [3], inactive: 0.045; in assay [4] it was inactive: 0.074; in [5], inactive: 0.014. Moreover, the log2 fold change in assay [9] was inactive: -0.049; in [6], inactive: -0.138; in assay [7], inactive: 0.16; in assay [8], inactive: -0.147.
As to NFKBIE (UniProt O00221), the log2 fold change with erlotinib is inactive: 0.023; in assay [1], inactive: 0.052; in assay [2], inactive: 0.057; in assay [3], inactive: 0.026; in [4] it was inactive: -0.055; in assay [9], inactive: -0.002. For the same target, the log2 fold change in assay [6] is inactive: 0.006; in assay [7] it was inactive: -0.012; in [8] it was inactive: 0.03.
Consider NFYA (UniProt P23511), for which the log2 fold change was inactive: 0.109 with erlotinib; inactive: -0.056 in assay [1]; inactive: -0.33 in assay [2]; inactive: 0.011 in assay [3]; inactive: 0.032 in assay [4]; inactive: 0.003 in [5]. Moreover, the log2 fold change was inactive: -0.143 in assay [9], inactive: -0.031 in assay [6], inactive: -0.081 in [7] and inactive: -0.005 in [8].
On to NELFCD (UniProt Q8IXH7), for which the log2 fold change was inactive: 0.096 with erlotinib; inactive: 0.034 in assay [1]; inactive: 0.121 in assay [2]; inactive: -0.154 in assay [3]; inactive: 0.056 in assay [4]; inactive: 0.031 in [5]. The log2 fold change in assay [6] was inactive: 0.06.
NOP53 (UniProt Q9NZM5): the log2 fold change with erlotinib was inactive: -0.201; in [1], inactive: -0.272; in assay [2], inactive: -0.231; in assay [3], inactive: 0.005; in assay [4], inactive: -0.298; in assay [5] it was inactive: 0.036. Moreover, the log2 fold change in assay [9] is inactive: -0.147; in assay [6], inactive: -0.121; in [7], inactive: 0.058; in [8], inactive: -0.387.
For the target NFS1 (UniProt Q9Y697), the log2 fold change in the assay with erlotinib was inactive: -0.02; in assay [1], inactive: 0.064; in [2] it was inactive: 0.064; in [3], inactive: -0.007; in assay [4], inactive: 0.021; in assay [5] it was inactive: -0.01. Further, the log2 fold change in assay [9] is inactive: 0.006; in [6] it was inactive: 0.018; in assay [7], inactive: -0.011; in assay [8], inactive: 0.027.
Regarding NEK3 (UniProt P51956), the log2 fold change with erlotinib is inactive: 0.003; in [1], inactive: -0.011; in [2], inactive: 0.096; in assay [3], inactive: 0.06; in assay [4], inactive: -0.063; in assay [9], inactive: 0.039. Besides, the log2 fold change in [6] was inactive: -0.05; in assay [7], inactive: -0.141; in assay [8], inactive: 0.103.
In the case of NIT1 (UniProt Q86X76), the log2 fold change in the assay with erlotinib is inactive: 0.008; in assay [1], inactive: -0.004; in [2], inactive: 0; in [3], inactive: 0.057; in assay [4], inactive: 0.03; in assay [5], inactive: 0.023. For the same target, the log2 fold change in assay [9] is inactive: 0.014; in assay [6] it was inactive: -0.02; in assay [7], inactive: 0.014; in assay [8], inactive: 0.036.
On to NME7 (UniProt Q9Y5B8), for which the log2 fold change in the assay with erlotinib is inactive: 0.166; in [1], inactive: 0.058; in assay [2], inactive: -0.052; in assay [3], inactive: -0.247; in assay [4], inactive: 0.127; in assay [5], inactive: -0.023. Besides, the log2 fold change was inactive: 0.06 in assay [9], inactive: 0.006 in assay [6], inactive: -0.039 in assay [7] and inactive: -0.248 in assay [8].
For the target NSMAF (UniProt Q92636), the log2 fold change was inactive: -0.053 in the assay with erlotinib; inactive: 0.034 in assay [1]; inactive: 0.047 in assay [2]; inactive: 0.021 in [3]; inactive: -0.036 in [4]; inactive: -0.008 in [5]. Besides, the log2 fold change in assay [9] is inactive: -0.021; in assay [6], inactive: 0.03; in assay [7] it was inactive: -0.057; in assay [8] it was inactive: 0.02.
For the target NSL1 (UniProt Q96IY1), the log2 fold change was inactive: 0.007 with erlotinib; inactive: 0.174 in assay [1]; inactive: -0.072 in assay [3]; inactive: 0.052 in assay [4]; inactive: -0.012 in assay [5]; inactive: 0.02 in assay [9]. The log2 fold change in assay [6] was inactive: -0.082; in [7], inactive: 0.009; in [8] it was inactive: -0.185.
With NKTR (UniProt P30414), the figures for the log2 fold change (with erlotinib; in assay [3]; in [5]) were inactive: 0.597, inactive: 0.028 and inactive: -0.149, respectively.
With NFATC4 isoform 2 (UniProt Q14934), the log2 fold change was inactive: -0.026 in [1]; inactive: 0.146 in assay [2]; inactive: 0.286 in assay [4]; inactive: 0.001 in [5]; inactive: 0.098 in assay [9]; inactive: 0.197 in assay [6]. Moreover, the log2 fold change was inactive: -0.027 in assay [7] and inactive: 0.061 in assay [8].
Regarding NIPSNAP3B (UniProt Q9BS92), the log2 fold change in the assay with erlotinib was inactive: -0.061; in [1] it was inactive: -0.014; in assay [3] it was inactive: -0.071; in [4] it was inactive: -0.159; in assay [5], inactive: 0.031; in assay [6], inactive: 0.007. Besides, the log2 fold change was inactive: 0.008 in assay [7] and inactive: 0.051 in [8].
Turning to NOD1 (UniProt Q9Y239), the log2 fold change was inactive: -0.057 in [2], inactive: 0.018 in assay [5] and inactive: -0.118 in assay [9].
NOS1AP (UniProt O75052): the log2 fold change in the assay with erlotinib is inactive: 0.134; in [2], inactive: 0.517; in assay [3] it was inactive: -0.006; in assay [5] it was inactive: -0.02; in assay [9], inactive: -0.248; in assay [7], inactive: -0.208. In assay [8], the log2 fold change is active: 1.09.
